Assay results published in publication PMC8222272.
Results are given in words; binding and its absence hold for the method and conditions named. In cells and extracts the contact can be indirect. Some entries that bind do so weakly or less than the wild type.

The chains behind the UniProt entries cited, without tags or fusion partners. Where a name states a change or a piece, a line headed by the entry shows the natural chain unless it says otherwise. A line that says so, or that is headed by a name, gives the form on record, which may keep a tag or linker. Residues count along the entry.
EGFP-tagged wild type LaminA (P02545, residues 1-646): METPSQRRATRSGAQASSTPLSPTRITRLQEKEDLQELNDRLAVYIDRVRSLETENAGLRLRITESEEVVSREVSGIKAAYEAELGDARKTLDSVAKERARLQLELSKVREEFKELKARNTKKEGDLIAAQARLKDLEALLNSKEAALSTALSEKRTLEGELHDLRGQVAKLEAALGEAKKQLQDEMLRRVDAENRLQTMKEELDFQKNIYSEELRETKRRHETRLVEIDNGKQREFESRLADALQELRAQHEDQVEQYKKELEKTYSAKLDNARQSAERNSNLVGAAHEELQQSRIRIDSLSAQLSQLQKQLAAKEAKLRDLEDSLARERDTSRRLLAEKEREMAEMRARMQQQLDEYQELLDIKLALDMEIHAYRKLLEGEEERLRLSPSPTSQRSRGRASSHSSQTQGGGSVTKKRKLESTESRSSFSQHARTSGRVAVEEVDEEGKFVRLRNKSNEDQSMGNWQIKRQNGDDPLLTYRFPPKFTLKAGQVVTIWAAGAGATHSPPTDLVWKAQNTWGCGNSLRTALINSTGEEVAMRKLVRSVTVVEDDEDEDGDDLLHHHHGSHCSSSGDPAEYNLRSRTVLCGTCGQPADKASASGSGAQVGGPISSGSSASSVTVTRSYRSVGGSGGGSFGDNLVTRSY
EGFP-tagged human LaminA∆50/progerin (P02545, form named): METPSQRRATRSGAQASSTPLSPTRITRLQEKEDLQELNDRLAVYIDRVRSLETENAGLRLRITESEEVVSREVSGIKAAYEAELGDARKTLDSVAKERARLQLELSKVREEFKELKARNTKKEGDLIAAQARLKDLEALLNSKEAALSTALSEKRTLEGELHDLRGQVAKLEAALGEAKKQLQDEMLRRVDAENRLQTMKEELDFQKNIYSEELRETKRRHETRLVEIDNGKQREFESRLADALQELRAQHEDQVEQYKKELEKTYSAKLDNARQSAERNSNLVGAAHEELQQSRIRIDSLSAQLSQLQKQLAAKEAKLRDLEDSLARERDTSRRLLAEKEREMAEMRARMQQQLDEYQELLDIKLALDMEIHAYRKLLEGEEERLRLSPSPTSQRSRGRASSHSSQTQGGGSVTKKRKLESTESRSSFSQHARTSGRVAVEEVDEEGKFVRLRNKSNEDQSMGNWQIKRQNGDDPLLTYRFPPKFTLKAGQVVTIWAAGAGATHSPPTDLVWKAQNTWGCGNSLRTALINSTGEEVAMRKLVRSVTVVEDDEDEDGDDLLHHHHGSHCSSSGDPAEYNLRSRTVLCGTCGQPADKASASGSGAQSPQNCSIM
UniProt Q12888: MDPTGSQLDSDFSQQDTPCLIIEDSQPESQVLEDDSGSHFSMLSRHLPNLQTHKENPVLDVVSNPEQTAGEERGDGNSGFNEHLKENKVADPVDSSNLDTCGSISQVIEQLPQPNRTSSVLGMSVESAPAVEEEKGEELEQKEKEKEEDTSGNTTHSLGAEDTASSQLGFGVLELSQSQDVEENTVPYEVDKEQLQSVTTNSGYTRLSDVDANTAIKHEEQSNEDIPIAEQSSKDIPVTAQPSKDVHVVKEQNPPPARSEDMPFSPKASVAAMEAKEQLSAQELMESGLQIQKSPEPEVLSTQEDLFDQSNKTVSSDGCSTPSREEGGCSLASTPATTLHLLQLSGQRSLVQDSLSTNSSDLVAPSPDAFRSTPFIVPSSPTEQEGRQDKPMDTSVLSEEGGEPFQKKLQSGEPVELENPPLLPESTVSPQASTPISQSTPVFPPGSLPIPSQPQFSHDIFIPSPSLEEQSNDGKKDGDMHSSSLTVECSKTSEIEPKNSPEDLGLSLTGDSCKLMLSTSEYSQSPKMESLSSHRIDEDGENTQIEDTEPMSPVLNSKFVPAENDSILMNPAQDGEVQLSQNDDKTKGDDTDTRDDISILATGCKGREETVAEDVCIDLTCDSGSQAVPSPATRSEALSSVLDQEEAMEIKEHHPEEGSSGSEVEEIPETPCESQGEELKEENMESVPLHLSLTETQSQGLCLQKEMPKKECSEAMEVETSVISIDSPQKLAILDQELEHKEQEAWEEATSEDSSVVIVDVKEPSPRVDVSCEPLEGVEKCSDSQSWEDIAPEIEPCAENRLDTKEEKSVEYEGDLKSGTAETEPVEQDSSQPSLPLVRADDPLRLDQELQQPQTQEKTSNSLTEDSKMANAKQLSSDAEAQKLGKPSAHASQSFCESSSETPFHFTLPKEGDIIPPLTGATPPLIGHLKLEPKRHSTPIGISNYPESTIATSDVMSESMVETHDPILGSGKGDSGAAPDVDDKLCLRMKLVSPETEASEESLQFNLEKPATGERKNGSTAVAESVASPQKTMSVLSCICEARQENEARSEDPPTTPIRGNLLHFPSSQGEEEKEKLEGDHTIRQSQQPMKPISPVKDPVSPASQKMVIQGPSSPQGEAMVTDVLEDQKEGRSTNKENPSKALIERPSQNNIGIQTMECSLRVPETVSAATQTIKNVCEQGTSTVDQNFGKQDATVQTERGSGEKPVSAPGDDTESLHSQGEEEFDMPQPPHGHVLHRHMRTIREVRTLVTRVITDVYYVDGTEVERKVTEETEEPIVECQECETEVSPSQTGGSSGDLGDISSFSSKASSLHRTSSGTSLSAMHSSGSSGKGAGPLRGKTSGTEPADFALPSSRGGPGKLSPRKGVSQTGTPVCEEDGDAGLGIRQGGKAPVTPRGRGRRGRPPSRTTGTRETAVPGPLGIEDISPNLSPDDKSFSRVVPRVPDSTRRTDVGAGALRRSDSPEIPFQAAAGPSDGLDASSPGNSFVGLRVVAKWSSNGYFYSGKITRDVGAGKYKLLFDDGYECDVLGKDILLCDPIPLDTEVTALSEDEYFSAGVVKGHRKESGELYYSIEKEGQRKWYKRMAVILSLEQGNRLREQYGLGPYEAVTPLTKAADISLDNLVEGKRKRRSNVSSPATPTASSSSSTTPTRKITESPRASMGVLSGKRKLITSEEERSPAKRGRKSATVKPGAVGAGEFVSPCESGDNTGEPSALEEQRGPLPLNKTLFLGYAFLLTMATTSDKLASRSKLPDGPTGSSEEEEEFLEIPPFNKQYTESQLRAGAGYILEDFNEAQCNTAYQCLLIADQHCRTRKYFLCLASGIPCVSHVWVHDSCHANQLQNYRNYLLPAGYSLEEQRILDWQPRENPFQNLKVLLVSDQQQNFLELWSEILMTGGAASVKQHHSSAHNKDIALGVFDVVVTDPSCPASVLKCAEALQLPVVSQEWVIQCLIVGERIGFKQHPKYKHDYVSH

How the values were obtained:
[1] = molecular target: EGFP-tagged human LaminA∆50/progerin (human) (UniProt P02545); assay: co-IP; EGFP pull-down (mMACS GFP Epitope Tag Isolation kit, Miltenyi) from nuclear extracts of HDF expressing NLS-EGFP, EGFP-LA or EGFP-PG; lysis buffer 50 mM Hepes pH 7.8, 50 mM KCl, 300 mM NaCl, 0.1 mM EDTA, 10% glycerol, 1 mM DTT; cells non-treated or treated with bleomycin 10 μg/ml, 30 min; western blot; n = 1
[2] = molecular target: EGFP-tagged wild type LaminA (human) (UniProt P02545); assay: as above

binding [1]: binds | binding [2]: binds
Substance: 53BP1 (from UniProt Q12888 1-1972)
